From US20190183976A1
These are yes or no findings as the source states them, for the method shown. Some results given as binding are weak or reduced against the parent protein; the word gives no strength.

Sequences of proteins named here, by UniProt entry; tags and fusion partners are left off. Residues count along the entry.
UniProt P61073: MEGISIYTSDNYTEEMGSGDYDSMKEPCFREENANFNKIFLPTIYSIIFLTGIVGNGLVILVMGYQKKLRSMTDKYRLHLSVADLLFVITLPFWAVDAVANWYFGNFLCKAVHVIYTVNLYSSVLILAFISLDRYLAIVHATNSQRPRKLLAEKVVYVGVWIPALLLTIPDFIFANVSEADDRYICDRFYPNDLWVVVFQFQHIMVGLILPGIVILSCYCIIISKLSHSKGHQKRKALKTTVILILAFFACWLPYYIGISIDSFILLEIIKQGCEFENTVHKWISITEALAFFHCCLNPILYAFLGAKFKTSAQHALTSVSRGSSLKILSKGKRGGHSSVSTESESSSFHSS
UniProt P41586, residues 21-468: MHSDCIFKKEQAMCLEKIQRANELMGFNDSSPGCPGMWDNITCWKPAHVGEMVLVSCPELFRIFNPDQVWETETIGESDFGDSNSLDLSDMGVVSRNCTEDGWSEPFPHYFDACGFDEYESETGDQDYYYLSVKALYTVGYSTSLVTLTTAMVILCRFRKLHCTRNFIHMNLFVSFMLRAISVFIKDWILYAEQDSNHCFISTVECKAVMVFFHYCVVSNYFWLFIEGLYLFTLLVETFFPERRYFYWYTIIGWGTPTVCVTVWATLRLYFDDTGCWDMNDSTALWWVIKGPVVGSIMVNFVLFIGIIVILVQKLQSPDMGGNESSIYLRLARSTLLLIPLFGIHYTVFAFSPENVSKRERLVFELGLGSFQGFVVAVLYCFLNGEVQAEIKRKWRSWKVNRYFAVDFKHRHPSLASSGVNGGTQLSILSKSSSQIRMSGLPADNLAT

What was measured:
[1] = biological target: CXCR4-VN (human) (UniProt P61073); assay: BiFC, U-2 OS cells
[2] = biological target: CXCR4-VN (human) (UniProt P61073); assay: BiFC, U-2 OS cells (FIG. 2D)
[3] = biological target: CXCR4-EGFP (human) (UniProt P61073); assay: co-internalization of CXCR4-GFP after GPCRx agonist, U-2 OS cells

Measured: binding

ADCYAP1R1-VC (from UniProt P41586 21-468) (receptor)
binds: [1] | [2] | [3]
